Assay results reported in patent US20220227861A1 (UNIVERSITY COLLEGE CARDIFF CONSULTANTS, published 2022).
Results are given in words; binding and its absence hold for the method and conditions named. Binding seen in cells or lysates may run through a third protein. Some entries that bind do so weakly or less than the wild type.

Columns and labels:
[1] = target: T1, ZIP10 (SLC39A10) zinc transporter, endogenous in cells (human) (UniProt Q9ULF5); experiment: proximity ligation assay, nocodazole-treated MCF-7 cells
T1 sequence: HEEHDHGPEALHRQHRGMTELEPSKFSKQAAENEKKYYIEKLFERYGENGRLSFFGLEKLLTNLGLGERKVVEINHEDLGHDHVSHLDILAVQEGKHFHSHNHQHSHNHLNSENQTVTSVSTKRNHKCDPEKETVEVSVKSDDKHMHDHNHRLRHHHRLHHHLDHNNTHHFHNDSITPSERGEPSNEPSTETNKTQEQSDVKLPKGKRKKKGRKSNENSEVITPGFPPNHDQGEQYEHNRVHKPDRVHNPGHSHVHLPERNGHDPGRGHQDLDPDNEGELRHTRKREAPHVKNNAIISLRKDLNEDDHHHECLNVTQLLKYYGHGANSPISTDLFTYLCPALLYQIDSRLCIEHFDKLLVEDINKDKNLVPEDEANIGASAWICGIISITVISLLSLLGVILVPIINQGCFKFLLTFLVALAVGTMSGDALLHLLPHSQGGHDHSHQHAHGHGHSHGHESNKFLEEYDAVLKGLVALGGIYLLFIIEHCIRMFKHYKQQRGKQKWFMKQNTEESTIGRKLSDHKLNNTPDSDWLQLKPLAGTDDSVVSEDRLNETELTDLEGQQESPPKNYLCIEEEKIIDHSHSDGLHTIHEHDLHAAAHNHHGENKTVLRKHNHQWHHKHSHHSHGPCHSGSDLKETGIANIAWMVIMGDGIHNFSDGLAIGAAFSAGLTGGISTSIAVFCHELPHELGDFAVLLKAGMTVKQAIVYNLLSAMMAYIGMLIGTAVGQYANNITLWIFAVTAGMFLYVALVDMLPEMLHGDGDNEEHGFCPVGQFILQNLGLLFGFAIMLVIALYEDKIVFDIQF

[2] = target: T1, ZIP10 (SLC39A10) zinc transporter, endogenous in cells (human); experiment: proximity ligation assay with ZIP6-Y and ZIP10 antibodies, nocodazole-treated MCF-7 cells

- binding [1]: binds
- binding [2]: binds
B1: recombinant ZIP6 wild-type with C-terminal V5 tag (other)
chain: FPQTTEKISPNWESGINVDLAISTRQYHLQQLFYRYGENNSLSVEGFRKLLQNIGIDKIKRIHIHHDHDHHSDHEHHSDHERHSDHEHHSEHEHHSDHDHHSHHNHAASGKNKRKALCPDHDSDSSGKDPRNSQGKGAHRPEHASGRRNVKDSVSASEVTSTVYNTVSEGTHFLETIETPRPGKLFPKDVSSSTPPSVTSKSRVSRLAGRKTNESVSEPRKGFMYSRNTNENPQECFNASKLLTSHGMGIQVPLNATEFNYLCPAIINQIDARSCLIHTSEKKAEIPPKTYSLQIAWVGGFIAISIISFLSLLGVILVPLMNRVFFKFLLSFLVALAVGTLSGDAFLHLLPHSHASHHHSHSHEEPAMEMKRGPLFSHLSSQNIEESAYFDSTWKGLTALGGLYFMFLVEHVLTLIKQFKDKKKKNQKKPENDDDVEIKKQLSKYESQLSTNEEKVDTDDRTEGYLRADSQEPSHFDSQQPAVLEEEEVMIAHAHPQEVYNEYVPRGCKNKCHSHFHDTLGQSDDLIHHHHDYHHILHHHHHQNHHPHSHSQRYSREELKDAGVATLAWMVIMGDGLHNFSDGLAIGAAFTEGLSSGLSTSVAVFCHELPHELGDFAVLLKAGMTVKQAVLYNALSAMLAYLGMATGIFIGHYAENVSMWIFALTAGLFMYVALVDMVPEMLHNDASDHGCSRWGYFFLQNAGMLLGFGIMLLISIFEHKIVFRINF
notes: Expressed by transfection and immunoprecipitated from cell lysate with V5 antibody; also called ZIP6 wild-type (WT); ZIP6/LIV-1/SLC39A6 in pcDNA3.1/V5-His-TOPO; not shown: C-terminal V5 tag from vector pcDNA3.1/V5-His-TOPO
